Literature values as cited in US6740677B2, “Methods of treating benzodiazepine site (BZD-S) associated syndromes using 2′ hydroxyflavonoids” (priority 2002, dated 2004).
At least one structure is not confirmed: it was looked up by name or label, or the drawing left a doubt.

How the values were obtained:
benzodiazepine site [1] = conditions: 10^-4 M GABA, rat cerebral cortex membranes; cited from earlier work
benzodiazepine site [2] = conditions: 10^-5 M muscimol, rat cerebellar membranes; cited from earlier work

O=C1Nc2ccc(Cl)cc2C(c2ccccc2)=NC1O (centres unmarked) [Oxazepam]
GABA ratio (IC50 ratio without GABA/with GABA), column A (benzodiazepine site [1]): 2.7 | GABA ratio (IC50 ratio without GABA/with GABA), column B (benzodiazepine site [2]): 2.4
